In PubChem BioAssay AID2685 (National Center for Advancing Translational Sciences (NCATS), 2010):
This is one part of the list. These are further read-outs of the screen, such as a control signal, another cell line or another target. No call is given for them. Compounds called inactive in the main read-out are mostly missing here. The note in brackets gives the kind of curve behind each potency; many fits are weak.

Experiment: qHTS Assay for Lipid Storage Modulators in Drosophila S3 Cells;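 as to cell number change: cells counted by Cell Tracker Red CMTPX staining in the red channel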
Settings: BODIPY lipid droplet fluorescence, 18-24 h; for cell number change: measured here: cell count max response, cells fed with added oleic acid
Method in brief: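 Laser-scanning cytometry quantifies lipid droplet accumulation (500–530 nm total intensity; droplet/cell object ratio) in oleic acid-fed (400 uM added) Drosophila S3 cells treated with a concentration series. 20 uM Triacsin C defined 100% inhibition.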

[1] = measured here: lipid fluorescence (Fed channel) AC50, cells fed with added oleic acid
[2] = measured here: cell number channel AC50, cells fed with added oleic acid

CCc1ccc(CN2CCSCC2)cc1
AC50 [1]: 25.9 µM [rising, single point]

CC(C)Cn1c(-c2cc(Br)ccc2F)nc2c1c(=O)[nH]c(=O)n2CC(C)C
cell number change: 5.42%
AC50 [1]: 8.2 µM [falling, single point]

NC(=O)C1(N2CCCCC2)CCN(CC(=O)Nc2cc(Cl)ccc2Cl)CC1
AC50 [1]: 5.8 µM [rising, single point]

COc1ccc(-c2cc(C(F)F)n3ncc(C(=O)Nc4c(C)n(C)n(-c5ccccc5)c4=O)c3n2)cc1
cell number change: 0.239%
AC50 [1]: 6.51 µM [falling, single point]

O=CN1CCN(C2CC(=O)N(c3ccc(Br)cc3)C2=O)CC1 (stereo unspecified)
cell number change: -10.5%
AC50 [2]: 0.0164 µM [falling, full curve, poor fit]

CCCn1c(N2CCN(C(=O)/C=C/C(=O)O)CC2)nc2ccccc21
cell number change: 42.6%

O=C(Cn1nnc(-c2cccs2)n1)OC1CCCCC1
cell number change: -10.4%
AC50 [1]: 2.06 µM [falling, partial curve]

CC(C)N(CC#CCC(O)(c1ccccc1)C1CCCC1)CCO (stereo unspecified)
cell number change: 9.31%
AC50 [1]: 0.146 µM [falling, full curve, poor fit]

CN(Cc1ccccc1)/C(=N/O)c1cccc(Cl)c1
cell number change: -16.3%
AC50 [1]: 3.26 µM [falling, full curve, poor fit]

O=C(NCC(=O)N1CCN(S(=O)(=O)c2c(F)cccc2F)CC1)c1ccccc1F
cell number change: 83.7%
AC50 [2]: 29.1 µM [rising, single point]
AC50 [1]: 0.731 µM [falling, single point]

O=C(OC(C(=O)NCc1ccc2c(c1)OCO2)c1ccc(Cl)cc1)c1ccco1 (stereo unspecified)
cell number change: -1.88%

NNc1ccc2nncn2n1
cell number change: -6.72%

NC(=O)COC(=O)CCCc1nc2ccccc2s1
cell number change: -15.9%
AC50 [1]: 16.4 µM [falling, partial curve]

O=C(COC(=O)c1cc(Br)c(Br)s1)NCCC1=CCCCC1
cell number change: -26.5%
AC50 [1]: 20.6 µM [falling, single point]

O=C(CNC(=S)N(CCCN1CCOCC1)Cc1cccs1)NC1CCCC1
AC50 [2]: 0.731 µM [rising, single point]

COc1ccc(Cl)cc1N1C(=N)SCC1=O
cell number change: 21.5%
AC50 [1]: 0.291 µM [rising, full curve, poor fit]

COC(=O)CSc1nc(N)c2c3c(sc2n1)C(c1ccccc1)SC(c1ccccc1)C3 (stereo unspecified)
cell number change: 200%
AC50 [2]: 20.6 µM [rising, single point]

CCn1ccnc1CC1COc2ccccc2O1 (stereo unspecified)
cell number change: 11.9%
AC50 [1]: 0.259 µM [rising, full curve, poor fit]

COc1ccc(C(C(=O)NC(C)(C)C)N(C(=O)Cn2nnc3ccccc32)c2cccc(C(C)=O)c2)cc1O (stereo unspecified)
cell number change: -1.26%
AC50 [1]: 0.0517 µM [falling, full curve, poor fit]

Cc1ccc2cccc(OCC(=O)N3CC(C)CC(C)C3)c2n1 (stereo unspecified)
cell number change: 63.7%
AC50 [2]: 25.9 µM [rising, single point]

O=C(CN1C(=O)S/C(=C\c2ccccc2)C1=O)NNC(=O)c1ccccc1O
cell number change: -11.6%
AC50 [1]: 0.146 µM [falling, full curve, poor fit]

CCCCN(C)C(=O)Cn1cnc2sc(C)c(S(=O)(=O)N3CCN(c4ccccc4OC)CC3)c2c1=O
cell number change: -3.42%

Cc1cccc2cc3c(N)c(C(=O)N4CCCc5ccccc54)sc3nc12
cell number change: 12.1%
AC50 [1]: 25.9 µM [falling, single point]

Cc1cc(N)n2nc(-c3ccc(C(C)(C)C)cc3)cc2n1
AC50 [2]: 6.51 µM [rising, single point]

O=c1nc(N2CCOCC2)nc2n1CCO2
cell number change: -2.94%
AC50 [2]: 0.184 µM [falling, full curve, poor fit]

CCn1nnc(NC(=O)c2c(OC)cccc2OC)n1
cell number change: 11.4%
AC50 [1]: 0.116 µM [falling, full curve, poor fit]

C[C@@H](NC(=O)c1nc[nH]c1C(=O)OCc1ccccc1)c1ccccc1
cell number change: -46.6%
AC50 [2]: 0.731 µM [falling, partial curve, poor fit]

Cc1cc(C)n(-c2nc(SCC(=O)Nc3nccs3)c3c4c(sc3n2)COC(C)(C)C4)n1
cell number change: -20%
AC50 [1]: 0.13 µM [falling, full curve, poor fit]

CC(=O)c1cc2c(cc1NC(=O)Cn1nc(-c3ccc(F)cc3)ccc1=O)OCO2
cell number change: 17.8%
AC50 [1]: 0.58 µM [falling, single point]

CCOC(=O)c1n[nH]n(-c2cc(Cl)cc(Cl)c2)c1=O
cell number change: -5.13%
AC50 [2]: 2.06 µM [falling, partial curve, poor fit]
AC50 [1]: 1.3 µM [falling, full curve]

Cc1ccc(N2C(=O)C3NN=C(C(=O)OCc4ccccc4)C3C2=O)cc1 (stereo unspecified)
cell number change: -14.7%
AC50 [2]: 1.16 µM [falling, full curve, poor fit]

N#C/C(=C\c1ccc(C(=O)O)cc1)c1ccccn1
cell number change: 19.4%
AC50 [1]: 29.1 µM [rising, single point]

COc1ccccc1N1CCN(C(=O)c2cc3ccccc3[nH]2)CC1
cell number change: 1.1%

COc1ccc(/C=C/C(=O)c2ccc(O)cc2)cc1CN1CCOCC1
cell number change: -0.141%
AC50 [1]: 18.4 µM [falling, single point]

Cc1cc(C(=O)O)c(CSCc2cc(C(=O)O)oc2C)o1
AC50 [1]: 29.1 µM [rising, single point]

Cc1csc(CN(C)C(=O)CC2C(=O)NCCN2Cc2ccc(Cl)c(F)c2)n1 (stereo unspecified)
AC50 [1]: 6.51 µM [falling, single point]

COc1ccc(C(C)=O)cc1CSc1nnc(C)n1-c1ccccc1
cell number change: 13.5%

C/C(=N\NC(=O)C1CC1)c1ccccc1O
AC50 [1]: 0.103 µM [falling, single point]

COc1ccccc1-n1ccnc(SCC(=O)NCCc2ccccc2)c1=O
cell number change: 1.71%
AC50 [1]: 3.26 µM [rising, single point]

O=c1c2ccccc2nnn1Cc1ccccc1Cl
cell number change: -11.8%
AC50 [2]: 6.51 µM [falling, single point]
AC50 [1]: 6.51 µM [falling, single point]

CC(C)(C)n1c(=O)[nH]c2c(c1=O)CCC2
cell number change: 8.7%

COCCn1c(=NC(=O)c2nc3ccccc3s2)sc2cc(S(C)(=O)=O)ccc21
cell number change: 26.5%
AC50 [1]: 0.116 µM [rising, full curve, poor fit]

O=C(COC(=O)CC(c1ccccc1)c1ccccc1)Nc1cccc(F)c1
cell number change: 46.4%
AC50 [2]: 13 µM [rising, partial curve]
AC50 [1]: 3.66 µM [falling, single point]

C/C(=N\NC(=O)C1CCCN(S(=O)(=O)c2ccccc2)C1)c1ccncc1 (stereo unspecified)
AC50 [2]: 2.31 µM [rising, partial curve]
AC50 [1]: 1.84 µM [rising, partial curve]

O=c1c2cc(NC(=S)N3CCC(N4CCCCC4)CC3)ccc2nc2n1CCCCC2
cell number change: 16.4%
AC50 [1]: 29.1 µM [falling, single point]

Cc1cc(=O)n2nc(N3CCC(C(=O)NCc4ccc(Cl)cc4)CC3)sc2n1
cell number change: 12.5%
AC50 [1]: 29.1 µM [rising, single point]

NC(=O)c1sc(=S)n(-c2ccc(Br)cc2)c1N
AC50 [1]: 5.8 µM [rising, single point]

COc1ccc(NC(=O)C2c3cc(OC)c(OC)cc3C(=O)N(C)C2c2cccnc2)cc1OC (stereo unspecified)
cell number change: 37.3%
AC50 [2]: 16.4 µM [rising, single point]

NS(=O)(=O)c1ccc(CCNC(=O)COC(=O)CCc2ccccc2)cc1
cell number change: -18.1%
AC50 [2]: 0.00731 µM [falling, full curve, poor fit]

Cc1cc(NC(=O)CN2C(=O)C3CC=CCC3C2=O)no1 (stereo unspecified)
cell number change: -1.26%
AC50 [1]: 0.731 µM [falling, full curve]

O=C(O)CCN1/C(=C/C=Nc2ccccc2)Oc2ccccc21
cell number change: -10.8%
AC50 [1]: 0.116 µM [falling, full curve]

COC(=O)[C@@H](Cc1ccccc1)NC(=O)NCCc1ccccc1
cell number change: -5.63%
AC50 [2]: 0.731 µM [rising, partial curve]
AC50 [1]: 16.4 µM [falling, single point]

Cc1cc(Cl)ccc1OCC(=O)Nc1cccc(S(=O)(=O)NC2=NCCCCC2)c1
AC50 [2]: 1.3 µM [rising, partial curve]

CCCCn1c(=O)c(CCC(=O)OCC(=O)NC(=O)NCCOC)nc2ccccc21
cell number change: 6.18%

CCOC(=O)N1CCC(Nc2ccc3nnc(-c4ccccc4)n3n2)CC1
cell number change: -33.1%
AC50 [2]: 13 µM [falling, partial curve]
AC50 [1]: 14.6 µM [falling, partial curve]

CCN(c1ccccc1)S(=O)(=O)c1ccc(OC)c(NC(=O)c2c(C)noc2C)c1
AC50 [1]: 0.291 µM [rising, full curve, poor fit]

COc1ccc(-n2nc(C(=O)O)nc2-c2ccccc2)cc1
AC50 [2]: 6.51 µM [falling, single point]

O=C(NCc1ccco1)c1nnc(Cc2ccc(Cl)cc2)o1
cell number change: 6.9%

Cc1cccc(OCC(O)CN2CCN(c3ccccn3)CC2)c1C (stereo unspecified)
cell number change: 32.4%
AC50 [2]: 29.1 µM [rising, single point]

CC(=O)Nc1ccc(SCC(=O)OCC(=O)NC(=O)NCCC(C)C)cc1
AC50 [2]: 1.3 µM [rising, full curve]

CCN(CC)S(=O)(=O)c1ccc(NC(=O)COC(=O)CN2C(=O)c3ccccc3C2=O)cc1
cell number change: -48%
AC50 [2]: 29.1 µM [falling, single point]
AC50 [1]: 16.4 µM [falling, partial curve]

O=C(COc1ccc(C(=O)c2ccccc2)cc1)Nc1cccnc1
cell number change: 12.6%

Cc1cc(C)n(CC(O)COc2cccc(OCC(O)Cn3nc(C)cc3C)c2)n1 (stereo unspecified)
cell number change: -19.6%
AC50 [1]: 3.66 µM [rising, single point]
